Data published in PMC6978316, “Development of chimeric peptides to facilitate the neutralisation of lipopolysaccharides during bactericidal targeting of multidrug-resistant Escherichia coli” (Communications Biology, 2020).
Where a SMILES comes first, the peptide text is derived from it. Bridges are numbered along the chain shown (N, C = ends).

What follows are compounds tested on E. coli 0111:B4 LPS (assay: CD spectra of peptides with or without LPS). Conditions: 10 mM Tris buffer, E. coli LPS 0.2 mg per ml.
Set-up: species or system Escherichia coli
“H-RVQGRWKVRASFFKEAAAKEAAAKGFAWNVCVYRNGVRVCHRRAN-OH (disulfide 31-40) [A6]” was tested, and the “decrease of antiparallel structure after binding to LPS (CD)” value (“decrease of antiparallel structure” below) was 12.23%, the “increase of helices after binding to LPS (CD)” value (from here on “increase of helices”) was 3.76% and the “increase of random coils after binding to LPS (CD)” value (“increase of random coils” below) was ~ 7%. CC(C)[C@@H]1NC(=O)CNC(=O)[C@H](CC(N)=O)NC(=O)[C@H](CCCNC(=N)N)NC(=O)[C@H](Cc2ccc(O)cc2)NC(=O)[C@H](C(C)C)NC(=O)[C@@H](NC(=O)[C@@H](NC(=O)[C@H](CC(N)=O)NC(=O)[C@H](Cc2c[nH]c3ccccc23)NC(=O)[C@H](C)NC(=O)[C@H](Cc2ccccc2)NC(=O)CN)C(C)C)CSSC[C@@H](C(=O)N[C@@H](Cc2c[nH]cn2)C(=O)N[C@@H](CCCNC(=N)N)C(=O)N[C@@H](CCCNC(=N)N)C(=O)N[C@@H](C)C(=O)N[C@@H](CC(N)=O)C(=O)O)NC(=O)[C@H](C(C)C)NC(=O)[C@H](CCCNC(=N)N)NC1=O [N6, reference compound] (H-GFAWNVCVYRNGVRVCHRRAN-OH; disulfide 7-16; N-terminus and C-terminus assumed) was tested, and the “decrease of antiparallel structure” value was 45.21%, the “increase of helices” value was 19.84% and the “increase of random coils” value was 26.7%. For CC(C)[C@@H]1NC(=O)CNC(=O)[C@H](CC(N)=O)NC(=O)[C@H](CCCNC(=N)N)NC(=O)[C@H](Cc2ccc(O)cc2)NC(=O)[C@H](C(C)C)NC(=O)[C@@H](NC(=O)[C@@H](NC(=O)[C@H](CC(N)=O)NC(=O)[C@H](Cc2c[nH]c3ccccc23)NC(=O)[C@H](C)NC(=O)[C@H](Cc2ccccc2)NC(=O)CNC(=O)[C@H](CO)NC(=O)CNC(=O)CNC(=O)CNC(=O)CNC(=O)[C@H](CCCCN)NC(=O)[C@H](Cc2ccccc2)NC(=O)[C@H](Cc2ccccc2)NC(=O)[C@H](CO)NC(=O)[C@H](C)NC(=O)[C@H](CCCNC(=N)N)NC(=O)[C@@H](NC(=O)[C@H](CCCCN)NC(=O)[C@H](Cc2c[nH]c3ccccc23)NC(=O)[C@H](CCCNC(=N)N)NC(=O)CNC(=O)[C@H](CCC(N)=O)NC(=O)[C@@H](NC(=O)[C@@H](N)CCCNC(=N)N)C(C)C)C(C)C)C(C)C)CSSC[C@@H](C(=O)N[C@@H](Cc2c[nH]cn2)C(=O)N[C@@H](CCCNC(=N)N)C(=O)N[C@@H](CCCNC(=N)N)C(=O)N[C@@H](C)C(=O)N[C@@H](CC(N)=O)C(=O)O)NC(=O)[C@H](C(C)C)NC(=O)[C@H](CCCNC(=N)N)NC1=O [G6] (H-RVQGRWKVRASFFKGGGGSGFAWNVCVYRNGVRVCHRRAN-OH; disulfide 26-35), the “decrease of antiparallel structure” value was 11.46%, the “increase of helices” value was 3.06% and the “increase of random coils” value was 6.97%.
